{
  "sequences": {"note": "Amino acid sequences for entries named in this document (tags omitted). A change or cut given only in a name is not applied to a line headed by its entry.", "UniProt P18054": "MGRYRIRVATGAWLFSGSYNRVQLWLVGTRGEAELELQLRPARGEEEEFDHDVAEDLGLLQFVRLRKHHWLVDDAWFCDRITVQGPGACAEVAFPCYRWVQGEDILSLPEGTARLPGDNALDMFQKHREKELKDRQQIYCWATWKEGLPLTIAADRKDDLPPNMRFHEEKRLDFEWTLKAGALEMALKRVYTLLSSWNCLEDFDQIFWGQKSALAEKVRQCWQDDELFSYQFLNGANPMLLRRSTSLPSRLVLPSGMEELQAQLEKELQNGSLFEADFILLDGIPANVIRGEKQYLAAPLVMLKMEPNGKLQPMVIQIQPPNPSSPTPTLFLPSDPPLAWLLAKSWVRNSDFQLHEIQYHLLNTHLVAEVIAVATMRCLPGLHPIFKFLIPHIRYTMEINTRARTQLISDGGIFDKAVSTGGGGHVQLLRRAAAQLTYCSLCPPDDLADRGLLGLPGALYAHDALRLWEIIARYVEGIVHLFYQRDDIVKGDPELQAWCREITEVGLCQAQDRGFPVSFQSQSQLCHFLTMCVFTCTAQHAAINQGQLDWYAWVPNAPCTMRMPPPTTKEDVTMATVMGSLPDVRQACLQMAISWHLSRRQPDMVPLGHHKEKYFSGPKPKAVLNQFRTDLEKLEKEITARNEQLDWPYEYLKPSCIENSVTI"},
  "source": "PubChem BioAssay AID1671190",
  "about": "(National Center for Advancing Translational Sciences (NCATS), 2021)",
  "note": "Where “and” joins values, the source holds several entries; their conditions need not be identical. Equal values may be shown once. Among all 580,000 compounds or so, about 6,100 (1.1%) were called active. Inconclusive results, whose numbers are uncertain, are shown with a selection of clear calls. Calls come from the whole dose curve; as a rule, active = well fitted inhibition curve with a large enough effect; inconclusive = small, poorly fitted or top-dose-only effect, or another doubt; inactive = no such curve, though single readings can be large or run the other way. A potency beside an inconclusive call is a rough fit, not a confirmed value. % is set by controls: 0 for no effect and ±100 for the full control effect; potency is the fitted concentration of half-maximal effect.",
  "data": [
    {"target": "Polyunsaturated fatty acid lipoxygenase ALOX12 (Homo sapiens) (UniProt P18054)", "assay": "Primary qHTS assay for inhibitors of human arachidonate 12S-lipoxygenase (ALOX12): Round 2", "settings": "purified 12hLO, xylenol orange hydroperoxide absorbance; activity change, negative = inhibition: at 108 µM (top of the series) unless noted", "summary_of_the_method": "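Purified human 12hLO at 150 nM in 25 mM Hepes, 0.01% Triton X-100, pH 7.0, preincubated 15 min at room temperature with compound. Reaction started with 40 uM arachidonic acid, 30 min at room temperature. Hydroperoxide measured by Fe-xylenol orange, 573/405 nm absorbance ratio.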", "values": [
      {"smiles": "COc1ccc(-c2c(-c3ccccc3)n(C)c3ccccc23)cc1", "activity change, negative = inhibition": "inactive: -6.49%"},
      {"smiles": "O=C(O)CCSc1sc(=S)sc1SCCC(=O)O", "Potency": "inconclusive: 35.5 µM [inhibitor, partial curve, poor fit]"},
      {"smiles": "COc1ccc(C(=O)O)nc1C", "Potency": "inconclusive: 0.316 µM [inhibitor, full curve, poor fit]"},
      {"smiles": "COC(=O)[C@H](CCCN=C(N)N)NC(=O)CCCc1c(-c2ccccc2)[nH]c2c(F)cc(F)cc12", "Potency": "inconclusive: 31.6 µM [inhibitor, single point]"},
      {"smiles": "COC(=O)c1sc2nc(-c3ccccc3)nc(N3CCN(C)CC3)c2c1C", "activity change, negative = inhibition": "inactive: -26.7%"},
      {"smiles": "CSc1ccc(NC(=O)Nc2cccn(Cc3ccccc3F)c2=O)cc1", "Potency": "inconclusive: 50.1 µM [inhibitor, partial curve, poor fit]"},
      {"smiles": "O=C(NCc1cccc(Br)c1)c1cc(-c2ccccc2)nn1CC1CC(c2cccnc2)=NO1", "note": "(centres undefined)", "Potency": "inconclusive: 22.4 µM [inhibitor, partial curve, poor fit]"},
      {"smiles": "Cc1ccc(CN2CC3(COCC2=O)CN(c2cnccn2)C3)cc1C", "Potency": "inconclusive: 25.1 µM [inhibitor, partial curve, poor fit]"},
      {"smiles": "COc1ccc(S[C@]2(c3nc(C)no3)CC(=O)N(C(=O)CCc3ccccc3)[C@@H]2c2ccc(OC)cc2)cc1", "Potency": "inconclusive: 89.1 µM [inhibitor, single point]"},
      {"smiles": "Cc1cccn2c(=O)c3cc(C(=O)NCc4ccc(F)cc4)c(=N)n(CCCN4CCOCC4)c3nc12", "activity change, negative = inhibition": "inactive: 6.97%"},
      {"smiles": "CCCn1nc(NC(=O)COC)c2cc3cccc(C)c3nc21", "activity change, negative = inhibition": "inactive: 2.19%"},
      {"smiles": "O=C(Nn1c(SCc2ccccc2F)nc2ccsc2c1=O)c1ccccc1", "Potency": "inconclusive: 126 µM [inhibitor, partial curve, poor fit]"},
      {"smiles": "CC1=NNC(=O)/C1=C\\c1cn(-c2ccccc2)nc1-c1ccc(Cl)cc1", "activity change, negative = inhibition": "inactive: -18.8%"},
      {"smiles": "CN(Cc1nc2ccccc2c(=O)[nH]1)Cc1nc2ccsc2c(=O)[nH]1", "activity change, negative = inhibition": "inactive: 14.1%"},
      {"smiles": "Cn1c(SCc2ccccc2)nnc1C1CCCNC1", "note": "(centres undefined)", "Potency": "inconclusive: 25.1 µM [inhibitor, single point]"},
      {"smiles": "O=C(Nc1cc(Br)ccc1O)c1cc(-c2cccs2)on1", "Potency": "inconclusive: 89.1 µM [inhibitor, partial curve, poor fit]"},
      {"smiles": "O=C(O)C1CN(c2ncccc2[N+](=O)[O-])C1", "Potency": "inconclusive: 89.1 µM [inhibitor, partial curve, poor fit]"},
      {"smiles": "COC(=O)C1=C(C)N(c2ccc(C)c(C)c2)C(=S)NC1c1ccsc1", "note": "(centres undefined)", "Potency": "inconclusive: 22.4 µM [inhibitor, single point]"},
      {"smiles": "N#C/C(=C\\c1ccco1)Sc1nc2ccccc2s1", "Potency": "inconclusive: 56.2 µM [inhibitor, partial curve, poor fit]"},
      {"smiles": "COc1ccc(CNC(=O)CCC2N=C3c4ccccc4N=C(SCC(=O)NCCc4ccc(OC)c(OC)c4)N3C2=O)cc1", "note": "(centres undefined)", "Potency": "inconclusive: 112 µM [inhibitor, partial curve, poor fit]"},
      {"smiles": "O=C(O)c1ccc(C(F)(F)F)nc1", "Potency": "inconclusive: 39.8 µM [inhibitor, partial curve, poor fit]"},
      {"smiles": "CCN1CCN(CC(=O)Nc2c(OC)cccc2OC)CC1", "Potency": "inconclusive: 0.355 µM [inhibitor, full curve, poor fit]"},
      {"smiles": "COc1cccc(C(=O)NCC2CCCN(Cc3cccnc3)C2)c1OC", "note": "(centres undefined)", "activity change, negative = inhibition": "inactive: 36.7%"},
      {"smiles": "O=C(O)c1ccccc1C(=O)N1N=C2/C(=C/c3cccc([N+](=O)[O-])c3)CCCC2C1c1cccc([N+](=O)[O-])c1", "note": "(centres undefined)", "Potency": "inconclusive: 44.7 µM [inhibitor, partial curve, poor fit]"},
      {"smiles": "Cc1cc(C)cc(NC(=O)CSc2nc(N)c(NC(=O)c3cccs3)c(=O)[nH]2)c1", "Potency": "inconclusive: 112 µM [inhibitor, single point]"},
      {"smiles": "Brc1ccc(-c2cn3c4ccccc4nc3n2CCCN2CCCC2)cc1", "Potency": "active: 10 µM"},
      {"smiles": "N[C@H](C(=O)O)[C@H](O)C(=O)O", "Potency": "inconclusive: 891 nM [inhibitor, full curve, poor fit] and inconclusive: 1.26 µM [inhibitor, partial curve, poor fit]"},
      {"smiles": "Cc1ccc(NC(=O)CN(C)CC(=O)Nc2ccc(N3CCOCC3)cc2)cc1F", "Potency": "inconclusive: 3.16 µM [inhibitor, full curve, poor fit]"},
      {"smiles": "CN(C)c1ccc(C(C(=O)NCc2ccccc2)N(Cc2cccnc2)C(=O)c2snc(C(N)=O)c2N)cc1", "note": "(centres undefined)", "activity change, negative = inhibition": "inactive: -14.8%"},
      {"smiles": "OC(c1ccco1)c1nc(-c2cccs2)cs1", "note": "(centres undefined)", "Potency": "active: 17.8 µM"},
      {"smiles": "Cc1cc(C(=O)N2CCC(Cc3nc(-c4cccnc4)n[nH]3)C2)nn1C", "note": "(centres undefined)", "activity change, negative = inhibition": "inactive: -2.65%"},
      {"smiles": "COc1ccc(C(=O)/C=C(\\C)Nc2ccc(NC(C)=O)cc2)cc1", "Potency": "inconclusive: 17.8 µM [inhibitor, partial curve, poor fit]"},
      {"smiles": "O=C1/C(=C/c2ccccc2Cl)Cc2ccccc21", "Potency": "inconclusive: 14.1 µM [inhibitor, partial curve, poor fit]"},
      {"smiles": "COc1ccc(/C=N/Nc2ccc(C(=O)O)cc2)cc1Br", "Potency": "inconclusive: 79.4 µM [inhibitor, single point]"},
      {"smiles": "Cc1sc(NC(=O)Cc2ccccc2)c(C#N)c1C", "Potency": "inconclusive: 31.6 µM [inhibitor, partial curve]"},
      {"smiles": "COC(=O)c1ccc(C)c(NC(=O)c2cc(=O)c3cc(C)ccc3o2)c1", "activity change, negative = inhibition": "inactive: -1.09%"},
      {"smiles": "CCOc1cc2ncc(C#N)c(Nc3ccc(F)c(Cl)c3)c2cc1NC(=O)C=CCN(C)C", "Potency": "inconclusive: 48.5 µM [inhibitor, single point]"},
      {"smiles": "O=C(NS(=O)(=O)Nc1ccc(Br)cn1)c1c[nH]c2ccccc12", "activity change, negative = inhibition": "inactive: -3.78%"},
      {"smiles": "O=S(=O)(c1ccc2nc(NC3CCCCC3)ccc2c1)N1CCCC1", "Potency": "active: 11.2 µM"},
      {"smiles": "CCOC(=O)CCCNC(=O)c1cncc(O)c1", "Potency": "inconclusive: 7.94 µM [inhibitor, full curve, poor fit]"},
      {"smiles": "CCc1ccc2c(c1)NC(=O)C2(C)Cc1ccc(Cl)s1", "note": "(centres undefined)", "Potency": "inconclusive: 79.4 µM [inhibitor, partial curve, poor fit]"},
      {"smiles": "Cc1cc(S(=O)(=O)NCCc2ccncc2)cc(C)c1F", "Potency": "inconclusive: 141 µM [inhibitor, single point]"},
      {"smiles": "CCN(CC)c1ccc(NC(=O)COCc2cc(-c3ccc4c(c3)OCO4)on2)c(C)c1", "Potency": "inconclusive: 4.47 µM [inhibitor, full curve, poor fit]"},
      {"smiles": "C(=N\\c1nc2ccccc2n1CCN1CCOCC1)/c1cccs1", "activity change, negative = inhibition": "inactive: 0.516%"},
      {"smiles": "CCOc1ccccc1Oc1coc2cc(OCC(=O)N3CCCCC3)ccc2c1=O", "Potency": "inconclusive: 22.4 µM [inhibitor, partial curve, poor fit]"},
      {"smiles": "COc1ccc(C2C(C(=O)c3sc(C)nc3C)=C(O)C(=O)N2CCCn2ccnc2)cc1OC", "note": "(centres undefined)", "Potency": "inconclusive: 5.62 µM [inhibitor, full curve, poor fit]"},
      {"smiles": "CCC(C)NC(=O)CSc1nc(-c2ccccc2)[nH]c1S(=O)(=O)c1ccc(C)cc1", "note": "(centres undefined)", "Potency": "inconclusive: 39.8 µM [inhibitor, partial curve, poor fit]"},
      {"smiles": "CC(C)Oc1ccc(CN2CCC2(C)C(=O)Nc2ccc(Cl)c(Cl)c2)cc1", "note": "(centres undefined)", "Potency": "inconclusive: 31.6 µM [inhibitor, single point]"},
      {"smiles": "CC(C)n1c(SC2C(=O)CC(C)(C)CC2=O)nc2c1c(=O)n(C)c(=O)n2C", "Potency": "inconclusive: 50.1 µM [inhibitor, partial curve, poor fit]"},
      {"smiles": "CC(C)CNC(=S)N(Cc1ccco1)Cc1cc2cc3c(cc2[nH]c1=O)OCCO3", "Potency": "inconclusive: 44.7 µM [inhibitor, partial curve, poor fit]"},
      {"smiles": "O=C(Nc1oc2ccccc2c(=O)c1-c1ccccc1)c1ccccc1", "Potency": "inconclusive: 8.91 µM [inhibitor, partial curve, poor fit]"},
      {"smiles": "CCN(C[C@H]1N[C@@](CC)(C(=O)OC)[C@H]2C(=O)N(C)C(=O)[C@@H]12)C(=O)c1ccccc1", "Potency": "inconclusive: 28.2 µM [inhibitor, partial curve, poor fit]"},
      {"smiles": "CCOC(=O)Cc1csc(SCC(=O)Nc2cccc(C#N)c2)n1", "activity change, negative = inhibition": "inactive: -9.77%"},
      {"smiles": "Cc1ccc2c(c1)C(C1(O)C(=O)N(Cc3ccccc3)c3ccccc31)C(=O)N2C", "note": "(centres undefined)", "Potency": "inconclusive: 100 µM [inhibitor, single point]"},
      {"smiles": "CCCCCCCCC(c1nc2ccccc2[nH]1)N1CCN=C1c1cc2ccccc2[nH]1", "note": "(centres undefined)", "Potency": "inconclusive: 39.8 µM [inhibitor, partial curve, poor fit]"},
      {"smiles": "Cc1ccc(-c2csc(N/N=C/C=C/c3ccccc3)n2)cc1", "Potency": "inconclusive: 79.4 µM [inhibitor, partial curve, poor fit]"},
      {"smiles": "C=CCn1c(-c2ccc(C)cc2)nc2ccccc21", "activity change, negative = inhibition": "inactive: 12.2%"},
      {"smiles": "CCC1=NN(C(=O)c2ccc(C)cc2)C(O)(c2ccc(Br)cc2)C1", "note": "(centres undefined)", "activity change, negative = inhibition": "inactive: -16.6%"},
      {"smiles": "COc1ccc(NC(=O)NNC(=O)CCc2ccc(O)c(O)c2)cc1OC", "Potency": "inconclusive: 39.8 µM [inhibitor, partial curve, poor fit]"},
      {"smiles": "Cc1ncc(-c2ccc(S(=O)(=O)Nc3ccc(Cl)cc3)cc2)o1", "Potency": "inconclusive: 39.8 µM [inhibitor, single point]"},
      {"smiles": "CCc1nc2ccc(C(=O)Nc3ccc4c(c3)OCC(=O)N4)cn2c1N(C)C(=O)C1CCCCC1", "Potency": "inconclusive: 100 µM [inhibitor, single point]"},
      {"smiles": "O=P(O)(c1ccccc1)c1ccccc1O", "Potency": "inconclusive: 39.8 µM [inhibitor, partial curve, poor fit]"},
      {"smiles": "COc1cccc(C(=O)N2CCCC(c3nn(-c4ccc(F)cc4)c(=O)[nH]3)C2)c1", "note": "(centres undefined)", "activity change, negative = inhibition": "inactive: 3.08%"},
      {"smiles": "CC(Cc1ccccc1)NC(=O)C1(c2ccccc2)CCCC1", "note": "(centres undefined)", "Potency": "inconclusive: 17.8 µM [inhibitor, partial curve, poor fit]"}
    ]}
  ]
}
